Results reported in US7659399B2, “1-thia-2,4a-diaza-cyclopenta[b]napththalene-3,4-diones and related compounds as anti-infective agents” (Achillion Pharmaceuticals, Inc., priority 2005, dated 2010).
Structures can show the parent of a compound that is named as a salt. Some of these results come from one statement about several compounds together.

Amino acid sequences for entries named in this document (tags omitted). A change or cut given only in a name is not applied to a line headed by its entry.
UniProt P11388: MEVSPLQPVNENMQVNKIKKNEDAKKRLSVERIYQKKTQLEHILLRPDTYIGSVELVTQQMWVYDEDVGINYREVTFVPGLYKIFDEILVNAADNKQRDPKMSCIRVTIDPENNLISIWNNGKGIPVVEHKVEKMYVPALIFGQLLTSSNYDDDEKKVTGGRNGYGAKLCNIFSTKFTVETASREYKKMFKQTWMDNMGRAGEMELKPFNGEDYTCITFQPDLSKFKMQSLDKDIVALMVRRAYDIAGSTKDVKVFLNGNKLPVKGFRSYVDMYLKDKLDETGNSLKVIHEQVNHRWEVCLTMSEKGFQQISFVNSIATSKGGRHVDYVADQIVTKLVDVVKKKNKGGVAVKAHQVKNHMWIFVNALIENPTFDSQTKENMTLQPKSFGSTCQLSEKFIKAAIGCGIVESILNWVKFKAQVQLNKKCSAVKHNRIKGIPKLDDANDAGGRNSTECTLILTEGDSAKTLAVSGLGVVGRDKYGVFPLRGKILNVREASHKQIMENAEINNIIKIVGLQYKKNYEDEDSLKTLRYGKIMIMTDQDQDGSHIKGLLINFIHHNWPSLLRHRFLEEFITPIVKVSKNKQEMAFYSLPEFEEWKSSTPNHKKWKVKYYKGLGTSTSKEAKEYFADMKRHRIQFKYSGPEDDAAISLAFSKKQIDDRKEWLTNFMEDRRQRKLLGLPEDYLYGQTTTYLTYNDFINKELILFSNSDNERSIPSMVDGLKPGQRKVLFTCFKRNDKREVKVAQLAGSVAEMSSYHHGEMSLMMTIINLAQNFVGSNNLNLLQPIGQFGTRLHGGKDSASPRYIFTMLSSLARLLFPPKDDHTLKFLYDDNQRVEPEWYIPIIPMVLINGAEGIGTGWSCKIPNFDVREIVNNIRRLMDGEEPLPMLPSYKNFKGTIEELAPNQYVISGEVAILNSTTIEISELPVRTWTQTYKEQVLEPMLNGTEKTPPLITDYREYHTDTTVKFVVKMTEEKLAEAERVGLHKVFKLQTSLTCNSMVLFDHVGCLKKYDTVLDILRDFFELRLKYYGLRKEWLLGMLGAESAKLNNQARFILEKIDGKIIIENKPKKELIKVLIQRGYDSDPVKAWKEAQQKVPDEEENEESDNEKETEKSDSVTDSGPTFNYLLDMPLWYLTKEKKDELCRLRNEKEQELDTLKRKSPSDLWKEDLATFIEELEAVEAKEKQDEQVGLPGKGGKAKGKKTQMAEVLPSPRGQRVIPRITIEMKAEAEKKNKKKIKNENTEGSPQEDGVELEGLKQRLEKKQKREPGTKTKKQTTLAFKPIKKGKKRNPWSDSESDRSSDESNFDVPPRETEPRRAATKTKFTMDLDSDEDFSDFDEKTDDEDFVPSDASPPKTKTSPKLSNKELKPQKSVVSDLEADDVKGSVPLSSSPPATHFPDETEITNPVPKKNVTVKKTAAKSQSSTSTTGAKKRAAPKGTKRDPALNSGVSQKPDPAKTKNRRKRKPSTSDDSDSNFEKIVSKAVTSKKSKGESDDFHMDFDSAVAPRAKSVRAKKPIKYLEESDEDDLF

Target: T1, Human p170 topoisomerase II (Homo sapiens, UniProt P11388)
T1 construct: purchased TopoGen
Test: Human topoisomerase II DNA cleavage assay
Type: biochemical
Details: EC2 = concentration required to enhance enzyme-mediated cleavage of double-stranded DNA twofold

## CCc1c2s[nH]c(=O)c2c(=O)n2ccc(-c3cc(C)nc(C)c3)cc12 [Compound 9, 7-(2,6-Dimethylpyridin-4-yl)-9-ethyl-1-thia-2,4a-diaza-cyclopenta[b]naphthalene-3,4-dione hydrochloride]
  activity against human topoisomerase II EC2: > 150 µM

## CCc1c2s[nH]c(=O)c2c(=O)n2ccc(-c3ccncc3)cc12 [Compound 8, 9-Ethyl-7-pyridin-4-yl-1-thia-2,4a-diaza-cyclopenta[b]naphthalene-3,4-dione hydrochloride]
  activity against human topoisomerase II EC2: > 150 µM
